{
  "source": "PubChem BioAssay AID463183",
  "about": "(Sanford-Burnham Center for Chemical Genomics, 2010)",
  "note": "This is one part of the list. Shown are side measurements of this screen, not its main read-out; they come without a call. Compounds called inactive in the main read-out are mostly missing here.",
  "data": [
    {"experiment": "blockers of oleate-driven lipid droplets in liver cells – imaging, AML12 mouse hepatocytes, single concentration, high-content, confirmation (AID 463183);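 further: cells counted after overnight compound exposure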", "conditions": "BODIPY lipid droplet imaging, measured here: cell count, cytotoxicity, at 5.2 µM, droplets induced with 100 µM oleic acid", "units": {"cell count": "cells"}, "values": [
      {"smiles": "Cc1oc2ccc(OCc3ccc(F)cc3Cl)cc2c1C(=O)O", "cell count": 1620},
      {"smiles": "CCOC(=O)[C@@H]1[C@H]2COc3ccc(Br)cc3[C@@H]2N2C(=O)N(c3ccc(C(F)(F)F)cc3)C(=O)[C@@]12C", "cell count": 1630},
      {"smiles": "C#CCOCCOCCOCCNc1nc(N2CCOCC2)nc(N2CCN(C(=O)[C@H]([C@@H](C)CC)n3cc([C@@H](N)Cc4ccc(O)cc4)nn3)CC2)n1", "cell count": 1630},
      {"smiles": "O=C(Cc1coc2ccc3ccccc3c12)NC1CCCc2ccccc21", "note": "(stereo unspecified)", "cell count": 1510},
      {"smiles": "CCOc1ccc(CCNC(=O)COC(=O)c2cc(OC)cc(OC)c2)cc1OCC", "cell count": 1620},
      {"smiles": "Cc1ccc(-c2c(C(=O)NC(C)C)oc(=O)c3ccccc23)cc1", "cell count": 1540},
      {"smiles": "CC(=O)c1ccc(N2CCCC2)c(F)c1", "cell count": 1590},
      {"smiles": "CCNC(=S)N1CCc2cc(OC)c(OC)cc2C1COc1ccccc1OC", "note": "(stereo unspecified)", "cell count": 1580},
      {"smiles": "CCOc1ccc(CCNC(=O)CSc2cc(=O)n(CC)c3ccccc23)cc1OCC", "cell count": 1610},
      {"smiles": "CC(Sc1nc(NCc2ccccc2)nc(N2CCOCC2)n1)C(=O)Nc1ccccc1", "note": "(stereo unspecified)", "cell count": 1540},
      {"smiles": "CCN1CCN(Cc2ccc(NC(=O)c3ccc(C)c(NC(=O)C(=O)c4c[nH]c5ccccc45)c3)cc2C(F)(F)F)CC1", "cell count": 1390},
      {"smiles": "COc1ccc(Cl)cc1NC(=O)CCNC(=O)OCc1ccccc1", "cell count": 1650},
      {"smiles": "COc1ccc(NC(=O)[C@H](C)NC(=O)[C@@H]2Cc3ccccc3CN2C(=O)OC(C)(C)C)cc1", "cell count": 1600},
      {"smiles": "Clc1cccc(Nc2nc(-c3ccncc3)cs2)c1", "cell count": 1200},
      {"smiles": "COc1cccc(/C(C)=N/NC(=O)Cc2c(C)[nH][nH]c2=O)c1", "cell count": 1560},
      {"smiles": "O=C(NCCc1nc2ccccc2[nH]1)c1ccc(Br)o1", "cell count": 1550}
    ]}
  ]
}
